The values below come from article PMC8858635.

Amino acid sequences for entries named in this document (tags omitted). Residues count along the entry.
UniProt P35222: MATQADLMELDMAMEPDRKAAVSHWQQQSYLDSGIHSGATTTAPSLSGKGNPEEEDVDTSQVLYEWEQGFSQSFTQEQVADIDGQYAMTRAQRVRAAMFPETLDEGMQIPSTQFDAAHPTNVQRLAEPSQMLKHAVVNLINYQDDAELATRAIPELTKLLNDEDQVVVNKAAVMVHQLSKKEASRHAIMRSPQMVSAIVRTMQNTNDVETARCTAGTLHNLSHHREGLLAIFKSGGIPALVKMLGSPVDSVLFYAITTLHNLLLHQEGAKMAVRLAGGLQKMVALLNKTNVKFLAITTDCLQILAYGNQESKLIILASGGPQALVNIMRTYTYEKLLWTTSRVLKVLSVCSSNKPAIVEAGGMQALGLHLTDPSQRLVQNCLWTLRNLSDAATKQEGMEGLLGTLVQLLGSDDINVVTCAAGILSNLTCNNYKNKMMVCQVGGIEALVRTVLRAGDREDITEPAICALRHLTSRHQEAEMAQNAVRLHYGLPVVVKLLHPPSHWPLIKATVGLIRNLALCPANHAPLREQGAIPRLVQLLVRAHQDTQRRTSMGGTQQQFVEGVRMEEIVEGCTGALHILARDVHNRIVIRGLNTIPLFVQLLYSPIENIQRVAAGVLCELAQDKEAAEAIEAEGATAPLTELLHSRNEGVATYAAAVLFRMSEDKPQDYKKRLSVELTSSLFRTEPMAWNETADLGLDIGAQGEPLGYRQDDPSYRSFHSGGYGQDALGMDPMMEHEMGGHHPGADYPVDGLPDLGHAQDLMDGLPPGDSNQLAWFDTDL
UniProt Q9HB71, residues 44-228: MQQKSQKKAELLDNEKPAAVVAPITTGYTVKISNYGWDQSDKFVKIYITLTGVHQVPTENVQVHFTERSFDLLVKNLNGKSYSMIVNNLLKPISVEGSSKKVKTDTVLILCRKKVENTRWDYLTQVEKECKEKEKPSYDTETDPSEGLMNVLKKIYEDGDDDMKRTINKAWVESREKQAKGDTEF

No constants are given. Whether binding was seen depends on the method and setting. In cells and extracts the contact can be indirect. Some entries that bind do so weakly or less than the wild type.

This assay addresses β-catenin (human (endogenous in MM cell lines ARP1 and CAG)) (UniProt P35222). Briefly: co-IP; Pierce Direct Magnetic IP/Co-IP kit; MM cells expressing FLAG-tagged CACYBP isoform2; which partner was precipitated is not told.

Take “FLAG-tagged CACYBP isoform2 (calcyclin binding protein isoform2, NM_001007214.1) (from UniProt Q9HB71-3 1-185)”: the binding result is recorded as “binds”.
